Data reported in article PMC5996148.
Values joined by “and” are separate entries in the source; they are usually repeats but may differ in a detail not shown here. Equal entries are not always repeated. The list shows a part of the results. For some assays here: The source does not settle which construct or isoform was used.

By UniProt entry, the sequences of proteins in these tests, tags left out. Where a name states a change or a piece, a line headed by the entry shows the natural chain unless it says otherwise.
UniProt Q9UHD2: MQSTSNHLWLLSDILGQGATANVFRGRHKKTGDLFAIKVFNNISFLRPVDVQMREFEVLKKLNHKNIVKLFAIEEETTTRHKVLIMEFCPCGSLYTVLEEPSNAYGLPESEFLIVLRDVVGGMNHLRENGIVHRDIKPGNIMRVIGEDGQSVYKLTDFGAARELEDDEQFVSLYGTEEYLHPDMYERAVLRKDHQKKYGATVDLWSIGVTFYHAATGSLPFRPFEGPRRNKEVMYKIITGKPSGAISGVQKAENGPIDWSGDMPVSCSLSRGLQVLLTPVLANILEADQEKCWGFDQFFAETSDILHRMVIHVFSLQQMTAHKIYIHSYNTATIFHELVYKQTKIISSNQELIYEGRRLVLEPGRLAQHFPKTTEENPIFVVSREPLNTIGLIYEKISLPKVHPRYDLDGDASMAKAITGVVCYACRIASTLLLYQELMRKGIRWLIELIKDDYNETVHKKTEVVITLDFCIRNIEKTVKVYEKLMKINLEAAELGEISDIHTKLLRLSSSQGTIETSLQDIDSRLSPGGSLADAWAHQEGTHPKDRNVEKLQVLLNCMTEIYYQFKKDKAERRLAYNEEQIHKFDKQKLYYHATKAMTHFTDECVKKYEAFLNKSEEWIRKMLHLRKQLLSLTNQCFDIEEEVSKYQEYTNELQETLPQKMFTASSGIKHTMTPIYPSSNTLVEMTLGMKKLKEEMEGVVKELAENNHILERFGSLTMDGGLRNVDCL

Key:
Test in all cases: protein microarray (ProtoArray v5.0), streptavidin-Alexa Fluor 647
Conditions in all cases: 3'-biotin; 20 mM Tris (pH 7.5), 5 mM MgCl2, 100 mM KCl, 0.1% Tween-20, A/T-rich and random oligonucleotide blockers; temperature not stated; high values mean tight binding
TBCB (human) = test system: TBCB (human)
TBCD (human) = test system: TBCD (human)
TBK1 = TBK1 (UniProt Q9UHD2)
TBL1X (human) = test system: TBL1X (human)
TBL2 (human) = test system: TBL2 (human)
TBXAS1 (human) = test system: TBXAS1 (human)
TCEB2 (human) = test system: TCEB2 (human)
TCP11 (human) = test system: TCP11 (human)
TCP11L1 (human) = test system: TCP11L1 (human)
TCTA (human) = test system: TCTA (human)
TEAD4 (human) = test system: TEAD4 (human)
TEKT2 (human) = test system: TEKT2 (human)
TEKT4 = molecular target: T1, TEKT4 (UniProt Q8WW24)
T1 sequence: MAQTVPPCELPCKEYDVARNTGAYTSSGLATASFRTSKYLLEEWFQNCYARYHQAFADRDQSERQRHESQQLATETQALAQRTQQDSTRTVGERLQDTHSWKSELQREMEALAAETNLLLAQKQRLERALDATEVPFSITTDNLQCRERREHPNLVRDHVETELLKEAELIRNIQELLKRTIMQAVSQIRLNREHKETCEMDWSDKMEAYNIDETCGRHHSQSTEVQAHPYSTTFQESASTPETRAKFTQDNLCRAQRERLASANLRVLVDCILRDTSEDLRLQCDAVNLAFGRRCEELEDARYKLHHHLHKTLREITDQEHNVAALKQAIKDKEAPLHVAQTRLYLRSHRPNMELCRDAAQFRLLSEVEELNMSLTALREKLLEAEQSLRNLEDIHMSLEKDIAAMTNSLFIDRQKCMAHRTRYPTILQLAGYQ

TESC (human) = test system: TESC (human)
TEX13B (human) = test system: TEX13B (human)
TEX264 (human) = test system: TEX264 (human)
TF (human) = test system: TF (human)
TFF2 (human) = test system: TFF2 (human)
TGDS (human) = test system: TGDS (human)
TGFB1I1 (human) = test system: TGFB1I1 (human)

GGGAGGCTGAGGCAGG [G4-1 biotinylated (PQS2)]
binding signal (TBCB (human)): -0.286 z-score
binding signal (TBCD (human)): -0.348 z-score
binding signal (TBK1): -0.325 z-score
binding signal (TBL1X (human)): -0.357 z-score
binding signal (TBL2 (human)): -0.32 z-score
binding signal (TBXAS1 (human)): -0.283 z-score and -0.291 z-score
binding signal (TCEB2 (human)): -0.287 z-score and -0.298 z-score
binding signal (TCP11 (human)): -0.366 z-score
binding signal (TCP11L1 (human)): -0.373 z-score
binding signal (TCTA (human)): -0.332 z-score
binding signal (TEAD4 (human)): -0.326 z-score
binding signal (TEKT2 (human)): -0.343 z-score
binding signal (TEKT4): -0.341 z-score
binding signal (TESC (human)): -0.338 z-score
binding signal (TEX13B (human)): -0.344 z-score
binding signal (TEX264 (human)): -0.323 z-score
binding signal (TF (human)): -0.35 z-score
binding signal (TFF2 (human)): -0.314 z-score
binding signal (TGDS (human)): -0.264 z-score
binding signal (TGFB1I1 (human)): -0.312 z-score
